{
  "sequences": {"note": "Protein sequences, listed by entry. Tags and fused reporters are not part of them. Lines headed by an entry give the natural chain unless they say otherwise; changes in a name come on top.", "UniProt Q9H3Z4": "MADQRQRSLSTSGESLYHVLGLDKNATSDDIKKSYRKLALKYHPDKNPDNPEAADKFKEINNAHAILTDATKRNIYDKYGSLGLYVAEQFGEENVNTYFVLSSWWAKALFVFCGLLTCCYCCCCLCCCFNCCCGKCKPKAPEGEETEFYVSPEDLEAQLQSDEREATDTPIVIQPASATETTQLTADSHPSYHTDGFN"},
  "source": "paper doi:10.1101/2021.07.16.452648",
  "target": "CSPα ΔJ-SBP-FLAG (UniProt Q9H3Z4)",
  "assay": "co-IP",
  "note": "Results are given in words; binding and its absence hold for the method and conditions named. Binding seen in cells or lysates may run through a third protein. Binding calls can cover weak binding; strength is not graded here.",
  "data": [
    {"substance": "CD98hc (endogenous) (from UniProt P08195 1-529)", "values": [
      {"measurement": "binding", "result": "binds"}
    ]}
  ]
}
